According to US20180020667A1, “CHEMICAL COMPOSITIONS THAT PRESENT SYNERGIC EFFECT FOR […] INSECTS IN PERSONAL HYGIENE PRODUCTS, COSMETICS FOR HUMAN USE, IN ANIMALS AND ON INANIMATE SURFACES IN GENERAL” (Universal Chemical Ltda., priority 2016, published 2018):
Some results were stated once for a whole list of compounds, not compound by compound.

Test system: insects
Assay: Length of protection against insect bites after application on the skin (conducted tests)
Type: in vivo
Conditions: in the presence of 1% to 10% Permethrin and Piperonyl Butoxide
Excerpt: Icaridin and DEET are employed in this synergic mixture as active ingredient.

CCC(C)OC(=O)N1CCCCC1CCO (centres unmarked) [Icaridin, 1-piperidinecarboxylic acid, 2-(2-hydroxyethyl)-, 1-methylpropyl ester]
Concentration necessary to reach 10 hours of protection against insect bites: lower than 10%

N,N-dimethyl-3-methylbenzamide [DEET]
Concentration necessary to reach 10 hours of protection against insect bites: lower than 10%
